Here are results for 41 compounds from PubChem BioAssay AID493014 (National Center for Advancing Translational Sciences (NCATS), 2011).

“And” between values parts separate entries of the source, which are not always exact repeats. Identical values can stand only once. Some of the results follow. Further columns of the screen follow, without active or inactive calls. The list favours compounds with an active or inconclusive main result. Potencies come from curve fits of mixed quality, noted in brackets.

The test is described as follows: qHTS Assay to Find Inhibitors of Chronic Active B-Cell Receptor Signaling. Conditions: ABC-DLBCL IkBa-CBG/CBR reporter, luminescence ratio (green luciferase fused to IkBa over red control in TMD8 lymphoma cells), 4 h; measured here: CBR red luminescence, cell number. The method in brief:
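Concentration-response series (up to 46 uM) were applied to TMD8 dual-reporter cells for 4 h at 37C with doxycycline. Green/red ratio, after filter-overlap correction, defined %Activity; red signal alone was normalised to basal cells and zero luminescence.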
Background: qHTS replaces the single test concentration by a dilution series.
Turning to `O=c1oc2ccccc2c(NCc2cccc(F)c2)c1[N+](=O)[O-]`, the concentration at half-maximal activity (AC50) – broadly, the midpoint of the concentration-response curve, whichever way the signal moves – is 18.4 µM [falling, partial curve].
With `O=C(O)c1cc(-c2ccco2)nc2ccc(Br)cc12`, the AC50 was 29.1 µM [falling, single point] and 1.03 µM [falling, partial curve, poor fit].
Under `O=C(O)COn1c(-c2ccc(Cl)cc2)nc2ccc(Cl)cc21` stands 10 µM [falling, partial curve, poor fit]; under `Cc1ccccc1NS(=O)(=O)c1cccc(C(=O)Nc2cccc(C(=O)O)c2)c1`, 5.62 µM [rising, full curve, poor fit]; under `C/C(CC(=O)Nc1cc(C)ccn1)=N\NC(=O)c1cccc(C)c1`, 11.2 µM [falling, partial curve, poor fit].
Under `NC(=O)C1CCN(Cc2nc3ccccc3c(=O)[nH]2)CC1` stands 0.00411 µM [rising, full curve, poor fit].
As to `CCN(C(=O)COC(=O)c1cc(C)n(-c2ccc(F)cc2)c1C)C1CCS(=O)(=O)C1` (stereo unspecified), the AC50 was 2.31 µM [falling, full curve, poor fit].
With `CC1CCC/C(=C\Nc2ccc(C(=O)O)c(O)c2)C1=O` (stereo unspecified) the figure was 20 µM [falling, partial curve, poor fit]; with `CCCCn1c(N)c(N(CCOC)C(=O)c2cccc(OCc3ccccc3)c2)c(=O)[nH]c1=O`, 0.92 µM [falling, full curve]; with `CCOC(=O)c1csc(NC(=O)c2ccccc2)n1`, 6.51 µM [falling, full curve, poor fit].
Under `COc1ccc(-c2noc(CSc3nnc(Cc4ccccc4)n3-c3ccc(Cl)cc3)n2)cc1` stands 4.61 µM [falling, partial curve, poor fit]; under `O=C(Nc1nccs1)c1cc(Cl)nc2ccccc12`, 17.8 µM [falling, partial curve, poor fit]; under `COc1cccc(/C=C2\SC(=S)N(CCCC(=O)N3CCCCC3CCO)C2=O)c1` (stereo unspecified), 0.708 µM [falling, full curve].
Under `COc1cccc(C(=O)O/N=C(\N)c2ccccn2)c1` stands 2.82 µM [falling, full curve, poor fit]; under `CCN(CC)CCNC(=O)NC1CCCCC1`, 25.9 µM [rising, single point].
For the compound `O=C(NCc1cccnc1)/C(=C\c1ccc(-c2ccc(Cl)c(Cl)c2)o1)S(=O)(=O)c1ccccc1`, the AC50 is 6.51 µM [falling, partial curve].
Regarding `COc1cccc(C2=NOC(C(=O)Nc3cc(C)nn3-c3ccccc3)C2)c1OC` (stereo unspecified), the AC50 is 16.4 µM [falling, partial curve].
For the compound `O=C(CSc1nc2ncc(Br)cc2[nH]1)c1cccc([N+](=O)[O-])c1`, the AC50 was 8.2 µM [falling, partial curve].
With `CC(=O)Oc1ccc(/C=N/NS(=O)(=O)c2ccc(C)cc2)c(OC(C)=O)c1` the figure was 8.91 µM [falling, partial curve].
For the compound `COc1ccc(NC(=O)NCCCN2CCCC2=O)cc1`, the AC50 is 29.1 µM [rising, partial curve, poor fit].
Under `COc1ccc2[nH]cc(C(O)CN3CCC(C(N)=O)CC3)c2c1` (stereo unspecified) stands 35.5 µM [falling, single point]; under `Cc1ccc(S(=O)(=O)n2nc(OC(=O)c3ccccc3C)cc2N)cc1`, 14.1 µM [falling, single point].
On to `O=C(NCCCO)c1cc([N+](=O)[O-])cc2c1C=Cc1ccccc1O2`, for which the AC50 was 7.08 µM [rising, partial curve].
With `CC(=O)Nc1ccc(S(=O)(=O)NCC2CCC(C(=O)NC(C)c3ccc4c(c3)OCCO4)CC2)cc1` (stereo unspecified) the figure was 17.8 µM [rising, single point]; with `O=C1OC(Nc2ccc(Br)cc2F)c2ccccc21` (stereo unspecified), 0.891 µM [falling, full curve, poor fit]; with `COC(=O)CSc1n[nH]c(-c2ccncc2)n1`, 18.4 µM [falling, single point].
With `COCCNC(=O)C(=O)NCC(c1ccc2c(c1)OCO2)N1CCN(c2ccc(F)cc2)CC1` (stereo unspecified) the figure was 0.631 µM [falling, partial curve, poor fit]; with `COc1ccc(C(O)Cc2nc3ccccc3n2C)cc1OC` (stereo unspecified), 29.1 µM [rising, single point].
Under `CC(OC(=O)Cc1c[nH]c2ccccc12)C(=O)N(C)c1ccccc1` (stereo unspecified) stands 18.4 µM [falling, partial curve]; under `Cc1ccc(-n2c(SCC(=O)NCc3cccs3)nnc2-c2ccoc2C)cc1`, 20 µM [falling, single point].
For the compound `CCc1ccc(OCCCC(=O)Nc2cccc(C(=O)O)c2)cc1`, the AC50 is 20 µM [rising, single point].
Under `CCOC(=O)N1CCN(C(=O)c2cc(COc3c(F)cccc3F)on2)CC1` stands 8.91 µM [rising, partial curve, poor fit].
With `CCN(CC)C(=O)CSc1nnc(SC(C)C(=O)NC2CC2)s1` (stereo unspecified) the figure was 0.164 µM [rising, full curve, poor fit]; with `CC(C)C(=O)Nc1ccc(NC(=O)c2ccco2)cn1`, 1 µM [rising, full curve]; with `Cc1nc(Nc2ccc(C(=O)O)cc2)sc1-c1ccccc1`, 1 µM [falling, full curve, poor fit].
With `CCOc1ccc(CCNC(=O)c2cc(=O)[nH]c3ccc(S(=O)(=O)N4CCCCC4)cc23)cc1OCC` the figure was 0.891 µM [rising, full curve, poor fit]; with `Cc1cc(Sc2nnc(/N=C/N(C)C)s2)c2ccccc2n1`, 7.08 µM [falling, full curve, poor fit].
With `O=C(Cc1c(F)cccc1Cl)NNC(=O)c1ccco1`, the AC50 is 29.1 µM [rising, single point].
Under `C=CCn1c(SCC(=O)OCc2ccccc2)nc2c1c(=O)n(C)c(=O)n2C` stands 0.731 µM [falling, full curve]; under `CCCn1ccc2c(OCC(=O)Nc3ccc(NC(C)=O)cc3)cccc2c1=O`, 0.00461 µM [rising, full curve, poor fit].
Turning to `N=c1n(CCN2CCCCC2)c2ccccc2n1CC(O)c1ccco1` (stereo unspecified), the AC50 was 0.708 µM [falling, full curve, poor fit].
